Experimental data published in article PMC12043087.
These are yes or no findings as the source states them, for the method shown. Binding seen in cells or lysates may run through a third protein. Some entries that bind do so weakly or less than the wild type.

By UniProt entry, the sequences of proteins in these tests, tags left out.
UniProt Q13547: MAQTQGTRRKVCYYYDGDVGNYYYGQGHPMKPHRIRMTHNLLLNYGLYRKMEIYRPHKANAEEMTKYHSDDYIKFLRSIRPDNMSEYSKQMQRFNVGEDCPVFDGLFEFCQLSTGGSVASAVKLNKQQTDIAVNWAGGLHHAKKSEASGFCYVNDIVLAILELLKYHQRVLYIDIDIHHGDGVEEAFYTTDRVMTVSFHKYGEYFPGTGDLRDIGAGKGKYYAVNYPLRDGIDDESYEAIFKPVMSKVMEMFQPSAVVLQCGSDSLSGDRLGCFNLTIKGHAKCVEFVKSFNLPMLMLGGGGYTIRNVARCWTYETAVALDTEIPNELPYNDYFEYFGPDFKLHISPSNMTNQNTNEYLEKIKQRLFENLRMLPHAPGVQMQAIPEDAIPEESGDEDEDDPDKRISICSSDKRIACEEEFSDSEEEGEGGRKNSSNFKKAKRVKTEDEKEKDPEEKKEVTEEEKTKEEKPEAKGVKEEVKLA
UniProt Q92769: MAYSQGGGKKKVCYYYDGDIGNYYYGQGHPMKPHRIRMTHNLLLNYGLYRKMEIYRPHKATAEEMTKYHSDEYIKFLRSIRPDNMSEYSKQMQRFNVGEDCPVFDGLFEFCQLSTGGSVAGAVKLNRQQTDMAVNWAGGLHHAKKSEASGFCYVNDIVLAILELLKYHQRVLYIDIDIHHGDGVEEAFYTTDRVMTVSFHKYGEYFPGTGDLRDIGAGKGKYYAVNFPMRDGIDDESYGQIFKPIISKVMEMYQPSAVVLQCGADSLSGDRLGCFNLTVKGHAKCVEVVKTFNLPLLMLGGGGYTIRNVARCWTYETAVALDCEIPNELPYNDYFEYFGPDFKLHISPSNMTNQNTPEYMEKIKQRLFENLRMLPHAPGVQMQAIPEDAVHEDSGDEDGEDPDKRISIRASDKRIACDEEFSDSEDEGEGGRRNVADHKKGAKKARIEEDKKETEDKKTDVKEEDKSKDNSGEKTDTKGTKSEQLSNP

Biological target: T1, SMAD nuclear interacting protein 1 (SNIP1) (human (endogenous in hVSMCs)) (UniProt Q8TAD8)
T1 sequence: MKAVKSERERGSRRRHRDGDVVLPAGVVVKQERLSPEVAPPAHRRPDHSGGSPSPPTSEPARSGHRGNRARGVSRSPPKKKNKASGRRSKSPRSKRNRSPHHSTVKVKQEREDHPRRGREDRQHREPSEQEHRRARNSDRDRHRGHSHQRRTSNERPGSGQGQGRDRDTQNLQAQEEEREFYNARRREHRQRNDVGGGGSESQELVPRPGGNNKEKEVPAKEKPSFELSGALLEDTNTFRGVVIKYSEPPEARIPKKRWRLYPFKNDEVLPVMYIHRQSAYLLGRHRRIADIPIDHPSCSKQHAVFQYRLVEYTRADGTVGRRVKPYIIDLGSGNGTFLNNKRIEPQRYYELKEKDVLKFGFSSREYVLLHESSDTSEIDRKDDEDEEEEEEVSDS
Test: co-IP; endogenous proteins of hVSMCs; antigen sample/antibody mixture on Protein A/G magnetic beads, room temperature 1 hour, low-pH elution, Western blot; TET2 with HDAC1/2 also tested in cells pretransfected with Lenti-sh-Scr or Lenti-sh-SNIP1

binding | Substance
binds | histone deacetylase 1 (HDAC1) (from UniProt Q13547 1-482)
binds | histone deacetylase 2 (HDAC2) (from UniProt Q92769 1-488)
